These are yes or no findings as the source states them, for the method shown. Binding seen in cells or lysates may run through a third protein. A yes stands for co-enrichment or nearness to the bait. Other partners may have been found.
B1: sPLA2-IIA, endogenous in HEPG2 cells (enzyme, UniProt P14555 21-144)
chain: NLVNFHRMIKLTTGKEAALSYGFYGCHCGVGGRGSPKDATDRCCVTHDCCYKRLEKRGCGTKFLSYKFSNSGSRITCAKQDSCRSQLCECDKAAATCFARNKTTYNKKYQYYSNKHCRGSTPRC
B2: DJC10, endogenous in HEPG2 cells (protein, UniProt Q8IXB1 33-793)
chain: DQDFYSLLGVSKTASSREIRQAFKKLALKLHPDKNPNNPNAHGDFLKINRAYEVLKDEDLRKKYDKYGEKGLEDNQGGQYESWNYYRYDFGIYDDDPEIITLERREFDAAVNSGELWFVNFYSPGCSHCHDLAPTWRDFAKEVDGLLRIGAVNCGDDRMLCRMKGVNSYPSLFIFRSGMAPVKYHGDRSKESLVSFAMQHVRSTVTELWTGNFVNSIQTAFAAGIGWLITFCSKGGDCLTSQTRLRLSGMLDGLVNVGWMDCATQDNLCKSLDITTSTTAYFPPGATLNNKEKNSILFLNSLDAKEIYLEVIHNLPDFELLSANTLEDRLAHHRWLLFFHFGKNENSNDPELKKLKTLLKNDHIQVGRFDCSSAPDICSNLYVFQPSLAVFKGQGTKEYEIHHGKKILYDILAFAKESVNSHVTTLGPQNFPANDKEPWLVDFFAPWCPPCRALLPELRRASNLLYGQLKFGTLDCTVHEGLCNMYNIQAYPTTVVFNQSNIHEYEGHHSAEQILEFIEDLMNPSVVSLTPTTFNELVTQRKHNEVWMVDFYSPWCHPCQVLMPEWKRMARTLTGLINVGSIDCQQYHSFCAQENVQRYPEIRFFPPKSNKAYHYHSYNGWNRDAYSLRIWGLGFLPQVSTDLTPQTFSEKVLQGKNHWVIDFYAPWCGPCQNFAPEFELLARMIKGKVKAGKVDCQAYAQTCQKAGIRAYPTVKFYFYERAKRNFQEEQINTRDAKAIAALISEKLETLRNQGKRNKDEL
B3: prosaposin (PSAP), endogenous in HEPG2 cells (protein, UniProt P07602 17-524)
chain: GPVLGLKECTRGSAVWCQNVKTASDCGAVKHCLQTVWNKPTVKSLPCDICKDVVTAAGDMLKDNATEEEILVYLEKTCDWLPKPNMSASCKEIVDSYLPVILDIIKGEMSRPGEVCSALNLCESLQKHLAELNHQKQLESNKIPELDMTEVVAPFMANIPLLLYPQDGPRSKPQPKDNGDVCQDCIQMVTDIQTAVRTNSTFVQALVEHVKEECDRLGPGMADICKNYISQYSEIAIQMMMHMQPKEICALVGFCDEVKEMPMQTLVPAKVASKNVIPALELVEPIKKHEVPAKSDVYCEVCEFLVKEVTKLIDNNKTEKEILDAFDKMCSKLPKSLSEECQEVVDTYGSSILSILLEEVSPELVCSMLHLCSGTRLPALTVHVTQPKDGGFCEVCKKLVGYLDRNLEKNSTKQEILAALEKGCSFLPDPYQKQCDQFVAEYEPVLIEILVEVMDPSFVCLKIGACPSAHKPLLGTEKCIWGPSYWCQNTETAAQCNAVEHCKRHVWN

By UniProt entry, the sequences of proteins in these tests, tags left out. Residues count along the entry.
UniProt P28799, residues 18-593: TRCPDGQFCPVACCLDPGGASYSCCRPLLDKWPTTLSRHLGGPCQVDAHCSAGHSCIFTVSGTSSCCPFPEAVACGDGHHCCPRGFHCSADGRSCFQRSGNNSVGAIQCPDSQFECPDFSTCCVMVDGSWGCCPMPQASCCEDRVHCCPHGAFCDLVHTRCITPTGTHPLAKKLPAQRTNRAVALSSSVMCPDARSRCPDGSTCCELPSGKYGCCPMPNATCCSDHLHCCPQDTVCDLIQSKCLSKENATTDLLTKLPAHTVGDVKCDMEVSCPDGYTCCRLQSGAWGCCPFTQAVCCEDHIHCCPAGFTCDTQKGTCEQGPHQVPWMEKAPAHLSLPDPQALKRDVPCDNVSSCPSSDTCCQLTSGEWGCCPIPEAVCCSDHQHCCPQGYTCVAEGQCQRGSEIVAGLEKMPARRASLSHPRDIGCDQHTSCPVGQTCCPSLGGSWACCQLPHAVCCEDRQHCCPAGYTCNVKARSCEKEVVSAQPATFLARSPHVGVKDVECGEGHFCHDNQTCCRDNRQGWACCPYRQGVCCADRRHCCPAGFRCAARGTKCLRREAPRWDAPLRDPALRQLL
UniProt P11021, residues 19-654: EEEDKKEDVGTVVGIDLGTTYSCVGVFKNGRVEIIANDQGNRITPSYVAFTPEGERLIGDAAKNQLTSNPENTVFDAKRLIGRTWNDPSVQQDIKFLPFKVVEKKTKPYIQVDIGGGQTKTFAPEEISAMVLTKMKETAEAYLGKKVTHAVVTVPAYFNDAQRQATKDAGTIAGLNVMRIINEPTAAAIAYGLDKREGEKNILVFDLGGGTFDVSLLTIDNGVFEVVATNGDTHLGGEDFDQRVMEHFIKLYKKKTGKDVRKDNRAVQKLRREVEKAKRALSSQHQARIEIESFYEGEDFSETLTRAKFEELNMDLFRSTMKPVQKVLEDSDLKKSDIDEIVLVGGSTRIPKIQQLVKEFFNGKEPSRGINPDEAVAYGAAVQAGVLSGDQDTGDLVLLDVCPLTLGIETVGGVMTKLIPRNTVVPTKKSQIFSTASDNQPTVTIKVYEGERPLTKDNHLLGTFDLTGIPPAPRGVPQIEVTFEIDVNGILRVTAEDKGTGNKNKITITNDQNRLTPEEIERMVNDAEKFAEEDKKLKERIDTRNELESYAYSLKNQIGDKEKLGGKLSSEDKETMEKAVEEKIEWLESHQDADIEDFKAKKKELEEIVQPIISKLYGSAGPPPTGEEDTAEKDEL

biological target: GFP-PGRN (human progranulin), expressed in HEPG2 cells (human) (UniProt P28799); experiment: affinity purification with mass spectrometry

| Molecule | binding |
| --- | --- |
| BIP, endogenous in HEPG2 cells (from UniProt P11021 19-654) | binds |
| B1 | binds |
| B2 | binds |
| B3 | binds |

Reference: publication doi:10.1101/2023.04.06.535844
